Experimental data from PMC8384837.
Where a chain is given by its changes, count along the chain named. The list shows a part of the results. For part of these data: At the low end of the ranking, values are background and their order means little. For part of these data: The source does not settle which construct or isoform was used.

Legend:
Details in all cases: yeast three-hybrid, YBZ-1, SC-Leu-His + 0.5 mM 3-AT, 4 days
[1] = biological target: T1, PUM1 PUF domain R1-QFR R2-VFQ R7-NPG S863Q + R864F + Q867R + N899V + Y900F + S1079N + N1080P + E1083G (UniProt Q14671)
T1 sequence: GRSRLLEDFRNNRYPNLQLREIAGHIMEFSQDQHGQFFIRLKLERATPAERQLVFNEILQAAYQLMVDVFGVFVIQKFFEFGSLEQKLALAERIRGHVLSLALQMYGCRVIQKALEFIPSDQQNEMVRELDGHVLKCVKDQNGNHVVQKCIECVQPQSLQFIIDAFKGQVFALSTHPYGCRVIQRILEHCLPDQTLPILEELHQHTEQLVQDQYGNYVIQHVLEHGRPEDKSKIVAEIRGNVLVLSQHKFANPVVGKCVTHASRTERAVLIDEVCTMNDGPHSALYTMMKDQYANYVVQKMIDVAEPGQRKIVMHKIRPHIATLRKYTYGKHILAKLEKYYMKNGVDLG

[2] = biological target: T2, PUM1 PUF domain R2-VFQ R3-THE R4-TFR N899V + Y900F + C935T + R936H + Q939E + N971T + H972F + Q975R (UniProt Q14671)
T2 sequence: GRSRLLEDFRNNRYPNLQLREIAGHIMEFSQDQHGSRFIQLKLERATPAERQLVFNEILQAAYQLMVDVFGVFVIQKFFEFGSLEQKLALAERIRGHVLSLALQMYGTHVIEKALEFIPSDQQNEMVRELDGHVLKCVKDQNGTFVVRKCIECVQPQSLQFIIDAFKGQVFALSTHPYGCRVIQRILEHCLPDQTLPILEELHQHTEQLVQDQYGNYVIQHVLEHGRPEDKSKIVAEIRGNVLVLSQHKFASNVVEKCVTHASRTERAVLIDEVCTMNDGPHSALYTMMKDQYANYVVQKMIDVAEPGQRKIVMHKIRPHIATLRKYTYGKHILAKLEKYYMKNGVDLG

[3] = biological target: T3, PUM1 PUF domain R5-PHQ R6-SWD C1007P + R1008H + N1043S + Y1044W + Q1047D (UniProt Q14671)
T3 sequence: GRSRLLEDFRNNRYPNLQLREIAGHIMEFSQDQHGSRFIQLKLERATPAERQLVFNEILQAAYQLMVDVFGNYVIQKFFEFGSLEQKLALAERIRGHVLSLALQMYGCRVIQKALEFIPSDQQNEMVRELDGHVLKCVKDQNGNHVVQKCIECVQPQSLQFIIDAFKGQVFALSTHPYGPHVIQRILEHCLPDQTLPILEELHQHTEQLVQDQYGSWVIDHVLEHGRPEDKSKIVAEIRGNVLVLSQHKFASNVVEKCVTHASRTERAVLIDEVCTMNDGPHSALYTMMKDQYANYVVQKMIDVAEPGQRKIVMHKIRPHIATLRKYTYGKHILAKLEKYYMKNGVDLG

[4] = biological target: T4, PUM1 PUF domain R6-SWD R7-NPG N1043S + Y1044W + Q1047D + S1079N + N1080P + E1083G (Homo sapiens) (UniProt Q14671)
T4 sequence: T3 sequence with P180C, H181R, S252N, N253P, E256G

[5] = biological target: T5, PUM1 PUF domain R3-THE R4-TFR C935T + R936H + Q939E + N971T + H972F + Q975R (UniProt Q14671)
T5 sequence: T2 sequence with V72N, F73Y

[6] = biological target: T6, PUM1 PUF domain R3-THE R4-TFR C935T + R936H + Q939E + N971T + H972F + Q975R (Homo sapiens) (UniProt Q14671)
T6 sequence: T2 sequence with V72N, F73Y

## GGCUAGAACUAGUGGAUCCCCCGGCGCCCGGCGGCUCGAGCCCGGGUAAGUUGAAUCCGUCUGCAUGCCGCCGGGCGCCAUGCCUGCAGGUCGACUCUAGAAAACAUG
[1]
  binding signal (log2 enrichment (interaction score)): -2.76
[2]
  binding signal (log2 enrichment (interaction score)): -4.84
[3]
  binding signal (log2 enrichment (interaction score)): -7.88
[4]
  binding signal (log2 enrichment (interaction score)): -1.64

## GGCUAGAACUAGUGGAUCCCCCGGCGCCCGGCGGCUCGAGCCCGGGUAAGUGCAUAAAGUCUGCAUGCCGCCGGGCGCCAUGCCUGCAGGUCGACUCUAGAAAACAUG
[1]
  binding signal (log2 enrichment (interaction score)): -4.75
[2]
  binding signal (log2 enrichment (interaction score)): -5.35
[3]
  binding signal (log2 enrichment (interaction score)): < -6.94

## GGCUAGAACUAGUGGAUCCCCCGGCGCCCGGCGGCUCGAGCCCGGGUAAGUUAAAUUAGUCUGCAUGCCGCCGGGCGCCAUGCCUGCAGGUCGACUCUAGAAAACAUG
[1]
  binding signal (log2 enrichment (interaction score)): < -6.65
[5]
  binding signal (log2 enrichment (interaction score)): -6.06

## GGCUAGAACUAGUGGAUCCCCCGGCGCCCGGCGGCUCGAGCCCGGGUAAGUGUUAGCAGUCUGCAUGCCGCCGGGCGCCAUGCCUGCAGGUCGACUCUAGAAAACAUG
[1]
  binding signal (log2 enrichment (interaction score)): -5.13
[5]
  binding signal (log2 enrichment (interaction score)): -7.79

## GGCUAGAACUAGUGGAUCCCCCGGCGCCCGGCGGCUCGAGCCCGGGUAAGGUAAGUACGUCUGCAUGCCGCCGGGCGCCAUGCCUGCAGGUCGACUCUAGAAAACAUG
[1]
  binding signal (log2 enrichment (interaction score)): < -6.72
[2]
  binding signal (log2 enrichment (interaction score)): -5.06
[4]
  binding signal (log2 enrichment (interaction score)): -0.53

## GGCUAGAACUAGUGGAUCCCCCGGCGCCCGGCGGCUCGAGCCCGGGUAAGUAGUUGAAGUCUGCAUGCCGCCGGGCGCCAUGCCUGCAGGUCGACUCUAGAAAACAUG
[1]
  binding signal (log2 enrichment (interaction score)): < -5.45
[5]
  binding signal (log2 enrichment (interaction score)): -6.87

## GGCUAGAACUAGUGGAUCCCCCGGCGCCCGGCGGCUCGAGCCCGGGUAAGGUUAAAGCGUCUGCAUGCCGCCGGGCGCCAUGCCUGCAGGUCGACUCUAGAAAACAUG
[1]
  binding signal (log2 enrichment (interaction score)): -4.84
[2]
  binding signal (log2 enrichment (interaction score)): -5.35
[4]
  binding signal (log2 enrichment (interaction score)): -1.1

## GGCUAGAACUAGUGGAUCCCCCGGCGCCCGGCGGCUCGAGCCCGGGUAAGUACAAGUAGUCUGCAUGCCGCCGGGCGCCAUGCCUGCAGGUCGACUCUAGAAAACAUG
[1]
  binding signal (log2 enrichment (interaction score)): -7.58
[5]
  binding signal (log2 enrichment (interaction score)): -7.78

## GGCUAGAACUAGUGGAUCCCCCGGCGCCCGGCGGCUCGAGCCCGGGUAAGUGAUAGAAGUCUGCAUGCCGCCGGGCGCCAUGCCUGCAGGUCGACUCUAGAAAACAUG
[1]
  binding signal (log2 enrichment (interaction score)): -6.73
[2]
  binding signal (log2 enrichment (interaction score)): -5.48
[3]
  binding signal (log2 enrichment (interaction score)): -7.72
[4]
  binding signal (log2 enrichment (interaction score)): -0.59

## GGCUAGAACUAGUGGAUCCCCCGGCGCCCGGCGGCUCGAGCCCGGGUAAGAUGAACAAGUCUGCAUGCCGCCGGGCGCCAUGCCUGCAGGUCGACUCUAGAAAACAUG
[1]
  binding signal (log2 enrichment (interaction score)): < -5.55
[2]
  binding signal (log2 enrichment (interaction score)): -4.59
[3]
  binding signal (log2 enrichment (interaction score)): < -7.98

## GGCUAGAACUAGUGGAUCCCCCGGCGCCCGGCGGCUCGAGCCCGGGUAAGUGGAAGCAGUCUGCAUGCCGCCGGGCGCCAUGCCUGCAGGUCGACUCUAGAAAACAUG
[1]
  binding signal (log2 enrichment (interaction score)): -5.36
[2]
  binding signal (log2 enrichment (interaction score)): -5.88
[4]
  binding signal (log2 enrichment (interaction score)): -0.86

## GGCUAGAACUAGUGGAUCCCCCGGCGCCCGGCGGCUCGAGCCCGGGUAAGUAUCCUUAGUCUGCAUGCCGCCGGGCGCCAUGCCUGCAGGUCGACUCUAGAAAACAUG
[1]
  binding signal (log2 enrichment (interaction score)): -7.1
[5]
  binding signal (log2 enrichment (interaction score)): < -7.47

## GGCUAGAACUAGUGGAUCCCCCGGCGCCCGGCGGCUCGAGCCCGGGUAAGCGUUAGUUGUCUGCAUGCCGCCGGGCGCCAUGCCUGCAGGUCGACUCUAGAAAACAUG
[1]
  binding signal (log2 enrichment (interaction score)): -6.25
[5]
  binding signal (log2 enrichment (interaction score)): -7.07

## GGCUAGAACUAGUGGAUCCCCCGGCGCCCGGCGGCUCGAGCCCGGGUAAGUUUAGGUGGUCUGCAUGCCGCCGGGCGCCAUGCCUGCAGGUCGACUCUAGAAAACAUG
[1]
  binding signal (log2 enrichment (interaction score)): < -7.26
[5]
  binding signal (log2 enrichment (interaction score)): -6.65

## GGCUAGAACUAGUGGAUCCCCCGGCGCCCGGCGGCUCGAGCCCGGGUAAGUGUGCGUAGUCUGCAUGCCGCCGGGCGCCAUGCCUGCAGGUCGACUCUAGAAAACAUG
[1]
  binding signal (log2 enrichment (interaction score)): -5.12
[6]
  binding signal (log2 enrichment (interaction score)): -0.8
[3]
  binding signal (log2 enrichment (interaction score)): < -7.02

## GGCUAGAACUAGUGGAUCCCCCGGCGCCCGGCGGCUCGAGCCCGGGUAAGAUUACAUAGUCUGCAUGCCGCCGGGCGCCAUGCCUGCAGGUCGACUCUAGAAAACAUG
[1]
  binding signal (log2 enrichment (interaction score)): -2.98
[5]
  binding signal (log2 enrichment (interaction score)): -6.38

## GGCUAGAACUAGUGGAUCCCCCGGCGCCCGGCGGCUCGAGCCCGGGUAAGGCUACGACGUCUGCAUGCCGCCGGGCGCCAUGCCUGCAGGUCGACUCUAGAAAACAUG
[1]
  binding signal (log2 enrichment (interaction score)): -5.67
[5]
  binding signal (log2 enrichment (interaction score)): -7.52

## GGCUAGAACUAGUGGAUCCCCCGGCGCCCGGCGGCUCGAGCCCGGGUAAGUUCAAGGAGUCUGCAUGCCGCCGGGCGCCAUGCCUGCAGGUCGACUCUAGAAAACAUG
[1]
  binding signal (log2 enrichment (interaction score)): < -5.99
[5]
  binding signal (log2 enrichment (interaction score)): < -7.73

## GGCUAGAACUAGUGGAUCCCCCGGCGCCCGGCGGCUCGAGCCCGGGUAAGCGGACGAAGUCUGCAUGCCGCCGGGCGCCAUGCCUGCAGGUCGACUCUAGAAAACAUG
[1]
  binding signal (log2 enrichment (interaction score)): -4.81
[5]
  binding signal (log2 enrichment (interaction score)): < -6.96
